The target of assay [1] is fH11–14 (complement factor H CCP modules 11–14, residues 629–865) (human) (UniProt P08603). As to the kind of experiment: SAXS; 10 °C, 50 mM potassium phosphate pH 7.4; 0.7, 1.8 and 3.5 mg/ml (fH12–13), 0.7 and 1.6 mg/ml (fH11–14), 2.4, 5.1 and 10.5 mg/ml (fH10–15); molecular mass from forward scattering and hydrated particle volume; both purified.
Assay [2] shares this target. As to the kind of experiment: AUC; sedimentation velocity, 45,000 rpm, protein 0.2–0.4 mg/ml in PBS (pH 7.5), 293 K; c(s) analysis with SEDFIT; both purified.
The target of assay [3] is fH10–15 (complement factor H CCP modules 10–15, residues 568–927) (human) (UniProt P08603). As to the kind of experiment: SAXS; 10 °C, 50 mM potassium phosphate pH 7.4; 0.7, 1.8 and 3.5 mg/ml (fH12–13), 0.7 and 1.6 mg/ml (fH11–14), 2.4, 5.1 and 10.5 mg/ml (fH10–15); molecular mass from forward scattering and hydrated particle volume; both purified.
For assay [4] the target is unchanged. As to the kind of experiment: AUC; sedimentation velocity, 45,000 rpm, protein 0.2–0.4 mg/ml in PBS (pH 7.5), 293 K; c(s) analysis with SEDFIT; both purified.

Protein sequences, listed by entry. Tags and fused reporters are not part of them. Residues count along the entry.
fH10–15 (complement factor H CCP modules 10–15, residues 568–927) (P08603, residues 568-927): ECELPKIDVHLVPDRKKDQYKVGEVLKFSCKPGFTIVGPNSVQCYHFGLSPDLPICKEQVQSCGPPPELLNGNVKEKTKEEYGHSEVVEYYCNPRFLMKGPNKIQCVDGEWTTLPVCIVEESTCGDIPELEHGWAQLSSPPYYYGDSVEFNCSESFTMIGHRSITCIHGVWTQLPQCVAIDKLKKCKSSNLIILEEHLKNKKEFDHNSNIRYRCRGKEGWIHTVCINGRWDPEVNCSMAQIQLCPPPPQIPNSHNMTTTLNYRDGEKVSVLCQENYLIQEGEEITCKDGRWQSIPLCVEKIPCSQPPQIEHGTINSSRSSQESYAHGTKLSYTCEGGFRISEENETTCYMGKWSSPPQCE
fH11–14 (complement factor H CCP modules 11–14, residues 629–865) (P08603, residues 629-865): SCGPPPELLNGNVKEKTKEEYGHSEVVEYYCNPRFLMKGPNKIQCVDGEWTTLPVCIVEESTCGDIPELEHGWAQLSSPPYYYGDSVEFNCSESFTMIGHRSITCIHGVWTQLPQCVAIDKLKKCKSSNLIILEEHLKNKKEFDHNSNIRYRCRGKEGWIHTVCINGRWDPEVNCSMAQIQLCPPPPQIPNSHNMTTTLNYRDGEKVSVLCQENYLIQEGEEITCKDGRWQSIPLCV

Results are given in words; binding and its absence hold for the method and conditions named.

For the substance “fH11–14 (complement factor H CCP modules 11–14, residues 629–865) (from UniProt P08603 629-865) (domain or fragment)”, the binding entry was “no binding (tested: 0.7 and 1.6 mg ml^(− 1))” in assay [1]; “no binding (tested: 0.2–0.4 mg ml^(− 1))” in assay [2].
Regarding “fH10–15 (complement factor H CCP modules 10–15, residues 568–927) (from UniProt P08603 568-927) (domain or fragment)”, the binding entry in assay [3] is “no binding (tested: 2.4, 5.1, and 10.5 mg ml^(− 1))”; in assay [4] it was “no binding (tested: 0.2–0.4 mg ml^(− 1))”.

(Values after publication PMC2806952.)
